The source of these data is publication PMC7195445.

Amino acid sequences for entries named in this document (tags omitted).
UniProt P20700: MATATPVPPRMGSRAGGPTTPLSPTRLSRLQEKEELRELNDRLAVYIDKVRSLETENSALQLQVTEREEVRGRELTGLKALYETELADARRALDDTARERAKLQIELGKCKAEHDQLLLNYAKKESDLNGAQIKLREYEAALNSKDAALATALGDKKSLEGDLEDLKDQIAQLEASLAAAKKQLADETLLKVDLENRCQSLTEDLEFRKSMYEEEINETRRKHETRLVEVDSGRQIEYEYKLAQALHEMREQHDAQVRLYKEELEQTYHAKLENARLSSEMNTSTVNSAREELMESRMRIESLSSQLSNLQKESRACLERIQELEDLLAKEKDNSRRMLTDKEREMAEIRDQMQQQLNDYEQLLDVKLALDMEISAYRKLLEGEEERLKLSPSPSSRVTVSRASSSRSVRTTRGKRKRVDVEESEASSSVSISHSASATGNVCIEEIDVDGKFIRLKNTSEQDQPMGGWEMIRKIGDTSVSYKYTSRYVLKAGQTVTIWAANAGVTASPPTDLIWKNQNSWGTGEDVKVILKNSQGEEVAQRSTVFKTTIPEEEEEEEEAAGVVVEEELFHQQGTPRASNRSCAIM

No constants are given. Whether binding was seen depends on the method and setting. In cells and extracts the contact can be indirect. Some results given as binding are weak or reduced against the parent protein; the word gives no strength.

The target of this assay is T1, Emerin (human (endogenous in hTERT RPE-1)) (UniProt P50402).
T1 sequence: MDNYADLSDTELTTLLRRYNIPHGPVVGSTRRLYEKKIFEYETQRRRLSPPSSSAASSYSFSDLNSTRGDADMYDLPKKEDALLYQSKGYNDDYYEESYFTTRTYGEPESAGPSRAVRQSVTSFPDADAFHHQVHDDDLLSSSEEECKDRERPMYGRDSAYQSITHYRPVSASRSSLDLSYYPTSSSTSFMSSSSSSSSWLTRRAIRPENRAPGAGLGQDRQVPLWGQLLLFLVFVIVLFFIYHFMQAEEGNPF
In words: proximity ligation; Duolink PLA kit; hTERT RPE-1 cells on micro-patterned lines, fixed with 4% PFA, permeabilized with 0.1% Triton-X; pairs of mouse anti-emerin with rabbit anti-Lamin B1 or rabbit anti-nesprin-1 antibodies.

Turning to nesprin-1 (from UniProt Q8NF91 1-8797), the binding entry was “binds”.

Take lamin B1 (from UniProt P20700 1-586): the binding result is reported as “binds”.
